Paper PMC5341751
Results are given in words; binding and its absence hold for the method and conditions named.

By UniProt entry, the sequences of proteins in these tests, tags left out. Where a name states a change or a piece, a line headed by the entry shows the natural chain unless it says otherwise. Chains listed by the source or under a name are the forms on record and can include a tag or linker.
glyCD147-ECD (P35613-2, form named): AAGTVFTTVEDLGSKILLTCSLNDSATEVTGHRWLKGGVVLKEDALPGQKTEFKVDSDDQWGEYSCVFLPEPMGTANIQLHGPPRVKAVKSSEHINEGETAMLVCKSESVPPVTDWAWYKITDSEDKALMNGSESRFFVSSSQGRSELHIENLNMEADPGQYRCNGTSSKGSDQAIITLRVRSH

Molecular target: T1, Syndecan-1 extracellular region (UniProt P18827)
T1 sequence (chain, isotopically labeled): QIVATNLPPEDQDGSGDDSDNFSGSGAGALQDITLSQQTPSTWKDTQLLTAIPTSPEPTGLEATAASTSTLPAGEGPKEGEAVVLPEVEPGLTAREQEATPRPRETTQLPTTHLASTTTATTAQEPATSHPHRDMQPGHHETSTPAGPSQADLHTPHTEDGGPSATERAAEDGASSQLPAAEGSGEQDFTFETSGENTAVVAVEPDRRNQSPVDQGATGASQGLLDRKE
Experiment: NMR titration; isotopically labeled Syndecan-1 with glyCD147-ECD; 25 °C; 50 mM phosphate, 50 mM NaCl, pH 6.5; both purified

binding: no binding
Substance: glyCD147-ECD (from UniProt P35613-2 22-205) (domain or fragment)
